Measured values published in the supplement of paper PMC10849652.
Some of the results follow.

The chains behind the UniProt entries cited, without tags or fusion partners. Where a name states a change or a piece, a line headed by the entry shows the natural chain unless it says otherwise.
UniProt P0DMU8: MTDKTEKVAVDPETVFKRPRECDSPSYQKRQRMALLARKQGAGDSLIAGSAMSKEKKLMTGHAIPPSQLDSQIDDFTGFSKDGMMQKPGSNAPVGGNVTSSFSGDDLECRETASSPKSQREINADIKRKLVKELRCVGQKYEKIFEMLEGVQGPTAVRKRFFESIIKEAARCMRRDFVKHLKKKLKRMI
UniProt Q92564: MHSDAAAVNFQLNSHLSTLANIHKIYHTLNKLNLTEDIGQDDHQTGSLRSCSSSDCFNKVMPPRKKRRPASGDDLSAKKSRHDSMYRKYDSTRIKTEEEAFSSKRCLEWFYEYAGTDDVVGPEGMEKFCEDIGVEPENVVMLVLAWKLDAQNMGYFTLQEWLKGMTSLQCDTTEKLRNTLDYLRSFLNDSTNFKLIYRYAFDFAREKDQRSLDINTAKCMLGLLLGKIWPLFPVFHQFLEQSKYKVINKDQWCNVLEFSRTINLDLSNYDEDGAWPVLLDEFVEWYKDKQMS
UniProt P14868: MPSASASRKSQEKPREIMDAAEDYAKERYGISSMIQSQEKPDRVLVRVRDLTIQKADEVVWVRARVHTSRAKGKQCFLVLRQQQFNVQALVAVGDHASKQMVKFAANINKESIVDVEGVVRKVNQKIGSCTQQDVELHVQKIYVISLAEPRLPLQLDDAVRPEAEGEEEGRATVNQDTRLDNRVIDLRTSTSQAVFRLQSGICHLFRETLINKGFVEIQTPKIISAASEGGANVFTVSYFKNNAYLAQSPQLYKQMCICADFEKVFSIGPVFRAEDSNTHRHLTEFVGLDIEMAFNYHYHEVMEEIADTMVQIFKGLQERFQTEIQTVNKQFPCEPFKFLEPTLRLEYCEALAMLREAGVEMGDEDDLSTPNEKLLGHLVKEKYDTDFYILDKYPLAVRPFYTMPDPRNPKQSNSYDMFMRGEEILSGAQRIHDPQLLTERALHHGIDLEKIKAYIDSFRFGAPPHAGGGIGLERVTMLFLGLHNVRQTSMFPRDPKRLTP
UniProt P09668: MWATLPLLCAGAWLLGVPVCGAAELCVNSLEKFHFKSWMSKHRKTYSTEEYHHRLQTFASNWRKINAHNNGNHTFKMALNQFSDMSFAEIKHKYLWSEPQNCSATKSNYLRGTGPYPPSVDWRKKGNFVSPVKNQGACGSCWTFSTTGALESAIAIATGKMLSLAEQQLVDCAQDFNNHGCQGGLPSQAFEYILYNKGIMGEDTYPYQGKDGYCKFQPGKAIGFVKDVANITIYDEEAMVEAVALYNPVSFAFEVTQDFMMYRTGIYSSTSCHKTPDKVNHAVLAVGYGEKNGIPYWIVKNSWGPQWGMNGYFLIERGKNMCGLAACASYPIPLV
UniProt P17812: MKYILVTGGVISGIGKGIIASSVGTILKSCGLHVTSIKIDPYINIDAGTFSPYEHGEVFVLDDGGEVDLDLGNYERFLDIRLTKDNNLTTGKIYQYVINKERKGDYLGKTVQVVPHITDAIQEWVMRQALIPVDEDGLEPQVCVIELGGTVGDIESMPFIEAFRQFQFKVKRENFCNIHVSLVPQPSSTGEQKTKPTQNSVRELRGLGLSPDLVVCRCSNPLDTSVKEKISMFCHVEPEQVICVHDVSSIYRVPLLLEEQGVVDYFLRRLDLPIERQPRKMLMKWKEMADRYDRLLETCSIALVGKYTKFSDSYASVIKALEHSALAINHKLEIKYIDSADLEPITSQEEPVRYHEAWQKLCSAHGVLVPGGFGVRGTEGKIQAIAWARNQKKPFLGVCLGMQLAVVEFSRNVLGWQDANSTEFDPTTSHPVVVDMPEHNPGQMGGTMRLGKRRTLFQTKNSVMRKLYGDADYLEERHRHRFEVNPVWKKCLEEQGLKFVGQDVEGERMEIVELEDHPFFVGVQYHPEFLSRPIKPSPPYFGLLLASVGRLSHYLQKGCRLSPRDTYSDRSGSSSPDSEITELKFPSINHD
UniProt P61803: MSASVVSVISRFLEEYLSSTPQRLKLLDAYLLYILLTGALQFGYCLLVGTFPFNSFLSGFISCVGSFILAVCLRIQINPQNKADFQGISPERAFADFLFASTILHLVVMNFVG
UniProt Q9H773: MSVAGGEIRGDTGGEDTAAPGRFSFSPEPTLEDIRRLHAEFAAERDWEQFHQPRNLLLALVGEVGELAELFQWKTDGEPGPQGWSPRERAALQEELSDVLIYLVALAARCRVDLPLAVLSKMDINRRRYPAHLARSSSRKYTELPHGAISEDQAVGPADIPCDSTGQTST
UniProt Q9H467: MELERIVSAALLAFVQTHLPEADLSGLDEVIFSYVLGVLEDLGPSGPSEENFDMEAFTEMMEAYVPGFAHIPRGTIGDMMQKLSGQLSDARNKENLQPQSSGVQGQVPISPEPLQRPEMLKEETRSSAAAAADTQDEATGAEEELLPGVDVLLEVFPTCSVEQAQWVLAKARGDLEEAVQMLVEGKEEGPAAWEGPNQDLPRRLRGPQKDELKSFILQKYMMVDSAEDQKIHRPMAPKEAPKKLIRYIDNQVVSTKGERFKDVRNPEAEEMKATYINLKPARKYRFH
UniProt Q8TEB1, whole entry, looked up: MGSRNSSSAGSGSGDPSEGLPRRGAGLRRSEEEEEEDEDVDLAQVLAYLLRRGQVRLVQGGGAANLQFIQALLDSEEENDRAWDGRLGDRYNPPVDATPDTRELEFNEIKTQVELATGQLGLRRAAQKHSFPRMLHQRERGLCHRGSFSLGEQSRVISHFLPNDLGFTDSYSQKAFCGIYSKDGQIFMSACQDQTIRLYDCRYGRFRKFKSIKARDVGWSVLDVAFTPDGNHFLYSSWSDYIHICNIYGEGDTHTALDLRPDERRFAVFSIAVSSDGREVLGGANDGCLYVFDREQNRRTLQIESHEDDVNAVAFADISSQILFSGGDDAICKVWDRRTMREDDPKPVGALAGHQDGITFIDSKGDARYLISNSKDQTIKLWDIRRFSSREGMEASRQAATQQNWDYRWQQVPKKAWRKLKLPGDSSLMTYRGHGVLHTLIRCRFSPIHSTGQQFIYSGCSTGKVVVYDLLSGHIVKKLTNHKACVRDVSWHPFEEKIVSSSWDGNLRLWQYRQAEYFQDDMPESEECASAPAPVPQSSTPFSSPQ
UniProt Q16850: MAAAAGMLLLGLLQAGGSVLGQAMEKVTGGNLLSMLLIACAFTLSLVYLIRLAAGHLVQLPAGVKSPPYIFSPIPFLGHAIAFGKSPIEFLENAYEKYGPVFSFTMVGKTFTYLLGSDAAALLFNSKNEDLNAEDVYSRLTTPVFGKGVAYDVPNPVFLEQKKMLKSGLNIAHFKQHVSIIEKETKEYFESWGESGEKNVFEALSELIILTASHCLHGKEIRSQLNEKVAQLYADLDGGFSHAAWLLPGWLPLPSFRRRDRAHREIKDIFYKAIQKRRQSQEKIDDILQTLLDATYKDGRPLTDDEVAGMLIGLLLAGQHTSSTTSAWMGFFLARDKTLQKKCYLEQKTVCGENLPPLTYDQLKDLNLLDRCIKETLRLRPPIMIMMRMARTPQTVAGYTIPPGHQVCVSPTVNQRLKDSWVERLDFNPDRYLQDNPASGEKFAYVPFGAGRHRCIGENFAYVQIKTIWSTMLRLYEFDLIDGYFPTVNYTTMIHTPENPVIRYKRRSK
UniProt Q7L576: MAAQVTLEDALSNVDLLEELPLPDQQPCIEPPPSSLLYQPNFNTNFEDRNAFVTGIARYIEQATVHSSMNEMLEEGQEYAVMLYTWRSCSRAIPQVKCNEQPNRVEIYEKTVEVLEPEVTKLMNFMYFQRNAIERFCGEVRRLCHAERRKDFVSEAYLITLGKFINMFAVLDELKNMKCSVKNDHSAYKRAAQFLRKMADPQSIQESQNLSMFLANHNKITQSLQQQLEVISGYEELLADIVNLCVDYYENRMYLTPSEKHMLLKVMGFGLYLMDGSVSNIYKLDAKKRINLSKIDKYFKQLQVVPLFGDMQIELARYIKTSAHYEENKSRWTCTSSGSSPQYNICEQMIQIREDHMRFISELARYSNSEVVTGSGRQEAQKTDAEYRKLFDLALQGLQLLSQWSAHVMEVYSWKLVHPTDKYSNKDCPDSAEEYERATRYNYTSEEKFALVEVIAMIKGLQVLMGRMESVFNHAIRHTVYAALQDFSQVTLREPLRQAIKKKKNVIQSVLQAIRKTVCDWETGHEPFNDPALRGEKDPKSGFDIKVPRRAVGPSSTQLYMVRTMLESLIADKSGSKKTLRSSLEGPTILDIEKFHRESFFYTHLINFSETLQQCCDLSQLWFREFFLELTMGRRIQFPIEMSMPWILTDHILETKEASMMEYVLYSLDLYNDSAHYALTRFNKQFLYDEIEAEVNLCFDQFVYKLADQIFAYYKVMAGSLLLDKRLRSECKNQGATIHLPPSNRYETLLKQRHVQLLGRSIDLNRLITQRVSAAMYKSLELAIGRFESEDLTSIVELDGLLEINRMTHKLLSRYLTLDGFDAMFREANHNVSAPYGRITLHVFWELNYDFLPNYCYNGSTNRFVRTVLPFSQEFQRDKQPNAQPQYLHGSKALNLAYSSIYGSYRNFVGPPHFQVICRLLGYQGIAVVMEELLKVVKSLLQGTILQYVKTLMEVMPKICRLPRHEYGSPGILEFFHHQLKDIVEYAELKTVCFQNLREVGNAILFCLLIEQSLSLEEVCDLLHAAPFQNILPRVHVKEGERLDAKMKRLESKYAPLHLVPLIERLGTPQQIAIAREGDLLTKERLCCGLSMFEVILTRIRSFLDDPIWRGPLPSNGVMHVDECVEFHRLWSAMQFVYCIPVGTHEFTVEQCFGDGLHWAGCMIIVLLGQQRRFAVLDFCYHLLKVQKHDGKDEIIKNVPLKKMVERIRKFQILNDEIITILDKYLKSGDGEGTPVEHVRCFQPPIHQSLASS
UniProt Q14203, whole entry, looked up: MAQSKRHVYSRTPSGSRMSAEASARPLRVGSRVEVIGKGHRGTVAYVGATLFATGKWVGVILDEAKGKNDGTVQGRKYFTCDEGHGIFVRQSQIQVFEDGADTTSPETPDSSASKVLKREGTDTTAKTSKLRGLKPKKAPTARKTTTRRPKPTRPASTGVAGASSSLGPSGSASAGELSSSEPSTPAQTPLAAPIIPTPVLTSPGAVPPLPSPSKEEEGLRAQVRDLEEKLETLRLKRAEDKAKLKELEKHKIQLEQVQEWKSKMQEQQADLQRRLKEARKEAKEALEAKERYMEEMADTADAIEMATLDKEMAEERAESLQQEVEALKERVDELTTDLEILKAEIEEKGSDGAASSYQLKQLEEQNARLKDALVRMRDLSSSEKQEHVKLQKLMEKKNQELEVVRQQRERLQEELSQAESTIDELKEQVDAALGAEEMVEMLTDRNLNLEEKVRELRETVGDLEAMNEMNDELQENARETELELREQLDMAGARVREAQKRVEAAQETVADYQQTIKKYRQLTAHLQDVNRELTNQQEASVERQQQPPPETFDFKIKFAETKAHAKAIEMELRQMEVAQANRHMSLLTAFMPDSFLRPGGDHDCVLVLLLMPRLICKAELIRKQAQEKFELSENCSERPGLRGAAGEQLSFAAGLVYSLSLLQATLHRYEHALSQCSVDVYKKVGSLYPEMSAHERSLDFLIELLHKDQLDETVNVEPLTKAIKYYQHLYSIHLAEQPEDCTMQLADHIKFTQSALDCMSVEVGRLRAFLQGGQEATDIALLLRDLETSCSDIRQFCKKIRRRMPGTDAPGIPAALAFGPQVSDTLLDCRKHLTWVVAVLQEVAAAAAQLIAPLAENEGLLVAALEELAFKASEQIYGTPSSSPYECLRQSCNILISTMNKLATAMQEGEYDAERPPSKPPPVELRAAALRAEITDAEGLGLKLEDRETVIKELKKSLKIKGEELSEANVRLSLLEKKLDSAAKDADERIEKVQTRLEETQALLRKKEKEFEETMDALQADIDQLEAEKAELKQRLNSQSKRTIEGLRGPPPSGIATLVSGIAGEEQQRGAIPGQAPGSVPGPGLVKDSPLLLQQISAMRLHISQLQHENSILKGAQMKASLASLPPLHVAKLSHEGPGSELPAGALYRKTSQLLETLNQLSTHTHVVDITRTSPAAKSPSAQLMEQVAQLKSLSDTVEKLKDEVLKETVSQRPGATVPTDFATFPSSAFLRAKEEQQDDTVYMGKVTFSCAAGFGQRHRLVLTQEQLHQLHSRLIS
UniProt Q96GG9: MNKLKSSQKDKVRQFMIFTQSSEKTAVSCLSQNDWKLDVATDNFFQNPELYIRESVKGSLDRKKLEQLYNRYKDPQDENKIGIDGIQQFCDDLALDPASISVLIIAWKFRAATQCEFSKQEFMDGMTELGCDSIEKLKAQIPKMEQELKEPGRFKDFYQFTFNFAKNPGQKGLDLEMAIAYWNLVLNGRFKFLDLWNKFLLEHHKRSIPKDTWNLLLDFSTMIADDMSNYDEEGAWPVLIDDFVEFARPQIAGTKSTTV
UniProt P13498: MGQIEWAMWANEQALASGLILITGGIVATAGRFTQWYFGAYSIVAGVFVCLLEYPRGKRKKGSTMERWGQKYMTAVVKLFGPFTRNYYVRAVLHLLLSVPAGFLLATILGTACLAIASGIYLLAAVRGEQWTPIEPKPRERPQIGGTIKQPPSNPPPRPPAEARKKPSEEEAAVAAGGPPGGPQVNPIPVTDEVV

Key:
Test in all cases: log2 fold change, soluble protein after heating vs DMSO (PISA); higher = thermal stabilisation; K562 cells, 10 uM, 30 min; active = over 0.2 and 3.5 SD of the protein, either way, in both replicates (recomputed)
[1] = compound: CS(=O)(=O)c1ccc(-c2cnc(N)c(C(=O)Nc3ccccc3)n2)cc1
In short: (§1)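 K562 cells at 2×10^6 cells/mL were treated with 10 μM compound for 30 min. Aliquots were heated for 3 min across 48°C-58°C, pooled, and extracted in PBS with 0.5% NP-40 at 4°C; soluble protein was the supernatant after 21,000xg for 90 min. Soluble protein was quantified by TMTpro 16plex LC-MS/MS with channel sums equalised, and reported as log2 fold change in thermal stability against DMSO controls, with values from duplicates.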

[2] = compound: C[C@@H](Oc1cc(-c2cnn(C3CCNCC3)c2)cnc1N)c1c(Cl)ccc(F)c1Cl [crizotinib]
In short: as §1

[3] = compound: C[C@@H]1COCCN1C2=NC(=NC(=C2)C3(CC3)S(=O)(=O)C)C4=C5C=CNC5=CC=C4
In short: as §1

[4] = compound: C[C@H](C1=CC=C(C=C1)C(=O)NC2=C3C=CNC3=NC=C2)N
In short: as §1

[5] = compound: C[C@H](Nc1ncnc2nc[nH]c12)c1cc2cccc(Cl)c2c(=O)n1-c1ccccc1 [duvelisib]
In short: as §1

[6] = compound: Cc1cc(Nc2cc(CN3CCOCC3)c3nc(C)c(Cc4ccc(Cl)cc4F)n3n2)n[nH]1 [gandotinib]
In short: as §1

[7] = compound: Cc1cc(Nc2cc(N3CCN(C)CC3)nc(Sc3ccc(NC(=O)C4CC4)cc3)n2)n[nH]1 [tozasertib]
In short: as §1

[8] = compound: Cc1cc(SCc2sc(-c3ccc(C(F)(F)F)cc3)nc2C)ccc1OCC(=O)O
In short: as §1

[9] = compound: Cc1ccc(-n2nc(C(C)(C)C)cc2NC(=O)Nc2ccc(OCCN3CCOCC3)c3ccccc23)cc1 [doramapimod]
In short: as §1

[10] = compound: Cc1ccc(C(=O)N(CCCN)[C@@H](c2nc3cc(Cl)ccc3c(=O)n2Cc2ccccc2)C(C)C)cc1 [ispinesib]
In short: as §1

| Target | log2 fold change [1] | log2 fold change [2] | log2 fold change [3] | log2 fold change [4] | log2 fold change [5] | log2 fold change [6] | log2 fold change [7] | log2 fold change [8] | log2 fold change [9] | log2 fold change [10] |
| --- | --- | --- | --- | --- | --- | --- | --- | --- | --- | --- |
| CT45A5 (UniProt P0DMU8) | inactive: -0.058 | inactive: 0.028 | inactive: -0.2 | inactive: 0.127 | inactive: -0.157 | inactive: 0.052 | inactive: 0.055 | inactive: -0.038 | inactive: 0.073 | inactive: 0.046 |
| DCTN4 (UniProt Q9UJW0) | inactive: -0.107 | inactive: 0.084 | inactive: -0.005 | inactive: 0.026 | inactive: 0.036 | inactive: -0.034 | inactive: -0.021 | inactive: -0.007 | inactive: 0.011 | inactive: 0.027 |
| DCUN1D4 isoform 3 (UniProt Q92564) | inactive: 0.097 | inactive: -0.033 | inactive: -0.041 | inactive: 0.019 | inactive: 0.129 | – | inactive: -0.012 | inactive: 0.027 | inactive: -0.058 | – |
| D2HGDH (UniProt Q8N465) | inactive: 0.055 | inactive: 0.07 | inactive: 0.046 | inactive: 0.012 | inactive: -0.02 | inactive: 0 | inactive: 0 | inactive: -0.018 | inactive: 0.024 | inactive: 0.003 |
| DARS (UniProt P14868) | inactive: -0.009 | inactive: 0 | inactive: -0.054 | inactive: 0.027 | inactive: -0.022 | inactive: 0.01 | inactive: -0.027 | inactive: -0.022 | inactive: 0.009 | inactive: -0.032 |
| CTH (UniProt P32929) | inactive: -0.012 | inactive: 0.029 | inactive: 0.029 | inactive: -0.103 | inactive: 0 | inactive: -0.093 | inactive: 0.005 | inactive: -0.017 | inactive: -0.025 | inactive: 0.082 |
| CTSH (UniProt P09668) | inactive: 0.032 | active: -0.249 | inactive: 0.074 | inactive: -0.02 | – | inactive: 0.031 | – | inactive: -0.068 | inactive: 0.023 | inactive: -0.221 |
| DAP3 (UniProt P51398) | inactive: -0.015 | inactive: 0.104 | inactive: 0.029 | inactive: 0.197 | inactive: -0.008 | inactive: 0.011 | inactive: -0.013 | inactive: 0.046 | inactive: 0.04 | inactive: -0.246 |
| CTPS1 (UniProt P17812) | inactive: -0.01 | inactive: 0.027 | inactive: 0.045 | inactive: -0.075 | inactive: 0.046 | inactive: 0.028 | inactive: -0.034 | inactive: 0.006 | inactive: -0.014 | inactive: -0.017 |
| DCAF13 (UniProt Q9NV06) | inactive: -0.086 | inactive: 0.067 | active: -0.538 | inactive: 0.273 | – | inactive: 0.221 | – | inactive: -0.033 | inactive: 0.173 | inactive: -0.1 |
| DAD1 (UniProt P61803) | inactive: 0.015 | inactive: -0.077 | inactive: 0.021 | inactive: -0.109 | inactive: -0.072 | – | inactive: -0.048 | inactive: -0.051 | inactive: -0.029 | – |
| CXorf38 (UniProt Q8TB03) | inactive: 0.003 | inactive: -0.025 | inactive: 0.039 | inactive: -0.049 | inactive: 0.018 | inactive: 0.001 | inactive: 0.002 | inactive: 0.011 | inactive: -0.001 | inactive: 0.019 |
| CTCF (UniProt P49711) | inactive: -0.065 | inactive: 0.101 | inactive: -0.377 | inactive: 0.279 | inactive: -0.224 | inactive: 0.23 | inactive: 0.009 | inactive: 0.041 | inactive: 0.265 | inactive: -0.084 |
| CTBP2 isoform 2 (UniProt P56545) | inactive: -0.038 | inactive: 0.053 | inactive: 0.002 | inactive: -0.062 | inactive: 0.034 | inactive: -0.03 | inactive: -0.017 | inactive: -0.031 | inactive: 0 | inactive: 0.005 |
| DCTPP1 (UniProt Q9H773) | inactive: -0.025 | inactive: 0.142 | inactive: 0.179 | inactive: -0.177 | – | inactive: -0.004 | – | inactive: -0.064 | inactive: -0.002 | inactive: 0.203 |
| CTDP1 (UniProt Q9Y5B0) | inactive: 0.056 | inactive: -0.096 | inactive: -0.082 | inactive: -0.056 | inactive: 0.076 | – | inactive: 0.055 | inactive: 0.044 | inactive: -0.053 | – |
| CUEDC2 (UniProt Q9H467) | inactive: 0.028 | inactive: -0.029 | inactive: 0.026 | inactive: -0.113 | – | inactive: -0.017 | – | inactive: 0.012 | inactive: -0.087 | inactive: 0.024 |
| DCAF11 (UniProt Q8TEB1) | inactive: 0.021 | inactive: 0.001 | inactive: 0.047 | inactive: -0.044 | inactive: 0.109 | inactive: -0.016 | inactive: -0.007 | inactive: 0.017 | inactive: -0.006 | inactive: -0.061 |
| CYP51A1 (UniProt Q16850) | inactive: 0.028 | inactive: 0.12 | inactive: -0.162 | inactive: 0.147 | – | inactive: -0.111 | – | inactive: 0 | inactive: 0.156 | inactive: 0.117 |
| CTR9 (UniProt Q6PD62) | inactive: -0.193 | inactive: 0.153 | inactive: 0.053 | – | inactive: 0.047 | inactive: -0.012 | – | inactive: 0.134 | inactive: 0.082 | inactive: -0.131 |
| CUX1 isoform 3 (UniProt P39880) | inactive: 0.02 | inactive: -0.023 | inactive: 0.086 | inactive: -0.002 | – | inactive: -0.048 | – | inactive: -0.026 | inactive: 0.019 | inactive: -0.101 |
| CYFIP1 (UniProt Q7L576) | inactive: 0.038 | inactive: -0.029 | inactive: 0.063 | inactive: -0.042 | – | inactive: -0.079 | – | inactive: 0.038 | inactive: -0.026 | inactive: 0.031 |
| DBN1 isoform 3 (UniProt Q16643) | inactive: -0.063 | inactive: 0.088 | inactive: -0.075 | inactive: 0.044 | – | inactive: -0.009 | – | inactive: -0.02 | inactive: 0.02 | inactive: 0.071 |
| CTNNB1 (UniProt P35222) | active: 0.666 | inactive: 0.024 | inactive: -0.087 | inactive: -0.102 | – | inactive: 0.336 | – | inactive: -0.024 | inactive: 0.047 | inactive: 0.078 |
| DCTN1 isoform 4 (UniProt Q14203) | inactive: -0.013 | inactive: -0.112 | inactive: 0.015 | inactive: 0.131 | – | inactive: 0.016 | – | inactive: 0.111 | inactive: 0.088 | inactive: -0.141 |
| DCUN1D1 (UniProt Q96GG9) | inactive: -0.027 | inactive: -0.061 | inactive: -0.047 | inactive: -0.067 | – | inactive: -0.059 | – | inactive: 0.002 | inactive: -0.053 | inactive: 0.036 |
| CYB561A3 isoform 2 (UniProt Q8NBI2) | inactive: 0 | inactive: -0.05 | – | inactive: -0.073 | – | inactive: -0.103 | – | inactive: -0.014 | inactive: 0.021 | inactive: -0.139 |
| CYBA (UniProt P13498) | inactive: 0.069 | inactive: -0.108 | inactive: 0.024 | inactive: -0.045 | – | inactive: -0.231 | – | inactive: 0.04 | inactive: 0.01 | active: -0.488 |

Single entries from the list.
CTDP1 (UniProt Q9Y5B0) – log2 fold change [9]: inactive: -0.053
D2HGDH (UniProt Q8N465) – log2 fold change [5]: inactive: -0.02

Record cards, as listed above. Values in the order: log2 fold change [1]	log2 fold change [2]	log2 fold change [3]	log2 fold change [4]	log2 fold change [5]	log2 fold change [6]	log2 fold change [7]	log2 fold change [8]	log2 fold change [9]	log2 fold change [10]
DCAF11 (UniProt Q8TEB1) is entered as inactive: 0.021	inactive: 0.001	inactive: 0.047	inactive: -0.044	inactive: 0.109	inactive: -0.016	inactive: -0.007	inactive: 0.017	inactive: -0.006	inactive: -0.061
DCAF13 (UniProt Q9NV06) is entered as inactive: -0.086	inactive: 0.067	active: -0.538	inactive: 0.273	–	inactive: 0.221	–	inactive: -0.033	inactive: 0.173	inactive: -0.1
